The text below walks through data of patent US20180312557A1, “Leg1 Protein, Leg1 Gene, and Uses and Drugs thereof” (ZHEJIANG UNIVERSITY, priority 2016, published 2018).

Results are given in words; binding and its absence hold for the method and conditions named. Binding seen in cells or lysates may run through a third protein. Some binding calls cover weakened binding; strength is not graded here.

Assay [1] has as its target EGFR in mouse liver (epidermal growth factor receptor, hepatocyte surface receptor) (mouse) (UniProt Q01279). Put plainly: co-immunoprecipitation with mLeg1 antibody from livers of mLeg1 knockout mice two hours after intragastric mLeg1-Re.
Assay [2] shares this target. The assay is described as follows: summary of the co-immunoprecipitation from livers after intragastric administration.
Assay [3] has the same target. Put plainly: co-immunoprecipitation: liver cells incubated with partially purified mLeg1 at 4°C with crosslinker DSP, pulled down with mLeg1 antibody, Western blot for EGFR.
Assay [4] shares this target. Put plainly: co-immunoprecipitation with mLeg1 antibody from livers of mLeg1 knockout mice at 0, 10, 20, 40, 60 min after intragastric mLeg1.

B1: recombinant mLeg1-Re protein (mLeg1 expressed in the Escherichia coli expression system, modification-defective) (ligand, not shown: small tags and cut ends)
chain: EVSDSSDPYPPLWEDSPEQLSDYMMEDGNYIINPWVYTDRMGMYRILLEETAMYFAKYGPENEQNLLWGLPLQFGWQYQSGRLADPTGMTDCGNELNESLCVSVDSWWADINYYLSVIPFLAAVDSGITGISPNQITILPPPKDQMRFCYNVSDCQSAVPGTMNRWRDFFQYMQLNSSDFDGLLNYLWEAHASSLDYPTSAFGDRYNFYSEKEANFEENWAIAVNYLAAARLPTTQNRTYSFQRGLPPRVLVDTDIAPFIPDFTPLQNEVLVSLKLLGDTDRNSGSLSLTLWENLMSTKLARTLFLKAFEEFLATSS
Turning to B1, in assay [1], the binding result was “binds”.

B2: mLeg1 protein (wild-type mouse Leg1, partially purified from the salivary glands of wild-type mice by sepharose 6B column chromatography) (ligand)
chain: VSDSSDPYPPLWEDSPEQLSDYMMEDGNYIINPWVYTDRMGMYRILLEETAMYFAKYGPENEQNLLWGLPLQFGWQYQSGRLADPTGMTDCGNELNESLCVSVDSWWADINYYLSVIPFLAAVDSGITGISPNQITILPPPKDQMRFCYNVSDCQSAVPGTMNRWRDFFQYMQLNSSDFDGLLNYLWEAHASSLDYPTSAFGDRYNFYSEKEANFEENWAIAVNYLAAARLPTTQNRTYSFQRGLPPRVLVDTDIAPFIPDFTPLQNEVLVSLKLLGDTDRNSGSLSLTLWENLMSTKLARTLFLKAFEEFLATSS
On to B2, for which the binding entry in assay [2], in assay [3] and in assay [4] was “binds” in each case.
